Data taken from the supplement of paper PMC4683952.
The list shows a part of the results. No stated cut-off is given here; in the data, active = 2 or more and inactive = the rest. Single values are uncertain here, since repeats match poorly.

system: Lgr5 (MarsCy1-Lgr5-EGFP, U2OS); assay: cell-surface Lgr5 expression (SCi1 fluorescence, background-subtracted) relative to WT DMSO (fold of DMSO control); higher = more Lgr5 at the plasma membrane; details: U2OS MarsCy1-Lgr5-EGFP stable; treatment time: overnight; library: ActiProbe-5K (TimTec); 25 µM

| Structure (SMILES) | cell-surface Lgr5 expression |
| --- | --- |
| COCCCN1C(=O)/C(=C\c2cnn(C)c2)N=C1S | inactive: 1.13 |
| FC(F)Oc1cccc2cccnc12 | inactive: 1.19 |
| CN(C)S(=O)(=O)c1ccc2c(c1)c(=O)nc1ccccn12 | inactive: 0.906 |
| COc1cc(OC)c(OC)cc1/C=N/n1c(S)nnc1-c1ccncc1 | inactive: 0.878 |
| S(/C=C(\Cl)Cl)(c1cc([N+]([O-])=O)ccc1)(=O)=O | active: 2.04 |
| Clc1ccc(/C=N/n2cnnc2)c(Cl)c1 | inactive: 0.888 |
| CC[n+]1c(/C=C2/C=Cc3ccc(C)cc3N2C)sc2ccccc21 | inactive: 0.912 |
| CN(C)C(=O)C1OC(C)(C)O[C@H]1C(=O)N(C)C (stereo partly specified) | inactive: 0.941 |
| O=C1OC(c2ccccc2F)=N/C1=C\c1c2ccccc2cc2ccccc12 | inactive: 1.2 |
| OCc1cc(-c2cccs2)no1 | inactive: 0.913 |
| Cc1cc(=O)nc(SCC(N)=O)[nH]1 | inactive: 1.15 |
| Cc1cc(C)n(NC(=O)CCn2ncc(Br)c2C)c(=O)c1 | inactive: 1.12 |
| CCc1nc(C#N)c(N2CCOCC2)o1 | inactive: 1.21 |
| CSc1snc(OC(C)C)c1C#N | inactive: 1.06 |
| C(=N\n1cnnc1)/c1c[nH]c2ccccc12 | inactive: 1.1 |
| Cc1cc(C)[n+](F)c(C)c1.O=S(=O)([O-])C(F)(F)F | inactive: 1.06 |

| Structure (SMILES) | cell-surface Lgr5 expression |
| --- | --- |
| CCn1ncc(S(=O)(=O)NCCCn2cc(Cl)cn2)c1C | inactive: 1.2 |
| CC1Cn2c(nnc2-c2cc3ccccc3cc2O)S1 (stereo unspecified) | inactive: 1.01 |
| Nc1ccc(Cl)c(-c2nc3cc(Cl)ccc3o2)c1 | inactive: 1.14 |
| Cc1cc(C)c2c(c1C)OC/C2=N\O | inactive: 1.13 |
| Cc1cc(C)c2nc(Cl)cc(C)c2c1 | inactive: 1.36 |
| O=C(O)c1cc2c(s1)CCC2 | inactive: 0.993 |
| CC1=CC(C)(C)N=C(Nc2nc(C)c3cc(C)cc(C)c3n2)N1 | active: 2.41 |
| Fc1ccc(/C=N\c2ccc(Cl)cn2)cc1 | inactive: 1.2 |
| Clc1ccc(COC(Cn2ccnc2)c2ccc(Cl)cc2Cl)c(Cl)c1 (stereo unspecified) | inactive: 1.43 |
| NCCNc1ccc([N+](=O)[O-])c(NC2CC2)c1 | inactive: 0.91 |
| O=C(O)c1cnc(O)nc1O | inactive: 1.3 |
| CC(C)OC(=O)CNc1n[nH]c(=S)[nH]c1=O | inactive: 1.08 |
| N#CC1=C(N)SC(N)=C(C#N)C1c1ccc(F)cc1F | inactive: 1.29 |
| S=C(Nc1ccccn1)NC1CCCCC1 | inactive: 0.953 |
| N#CCc1ccc([NH+]2CCC([O-])=C3CCCCC32)cc1 (stereo unspecified) | inactive: 1 |

Sorted by heavy-atom count (falling): part of the list above

| Structure (SMILES) | cell-surface Lgr5 expression |
| --- | --- |
| Clc1ccc(COC(Cn2ccnc2)c2ccc(Cl)cc2Cl)c(Cl)c1 (stereo unspecified) | inactive: 1.43 |
| CC1=CC(C)(C)N=C(Nc2nc(C)c3cc(C)cc(C)c3n2)N1 | active: 2.41 |
| CCn1ncc(S(=O)(=O)NCCCn2cc(Cl)cn2)c1C | inactive: 1.2 |
| CC1Cn2c(nnc2-c2cc3ccccc3cc2O)S1 (stereo unspecified) | inactive: 1.01 |
| Nc1ccc(Cl)c(-c2nc3cc(Cl)ccc3o2)c1 | inactive: 1.14 |
| NCCNc1ccc([N+](=O)[O-])c(NC2CC2)c1 | inactive: 0.91 |
| Fc1ccc(/C=N\c2ccc(Cl)cn2)cc1 | inactive: 1.2 |
| Cc1cc(C)c2c(c1C)OC/C2=N\O | inactive: 1.13 |
| O=C(O)c1cc2c(s1)CCC2 | inactive: 0.993 |
